According to US7678797B2, “1-phenyl-3-piperazine-pyrazoles and pesticidal compositions of matter thereof” (Merial Limited, priority 2004, dated 2010):
Some entries share one result that the patent states for a list of compounds.

Tested on: Ctenocephalides felis (Cat flea)
Assay: Method A: screening method to test systemicity of compounds against Ctenocephalides felis (artificial dog test, treated bovine blood)
Type: in vivo
Conditions: test concentration of 5 ppm or less in bovine blood; 10 adults; assessment at 24 and 48 hours after application

CCOC(=O)N1CCN(c2c(S(=O)(=O)C(F)(F)F)c(C#N)nn2-c2c(Cl)cc(C(F)(F)F)cc2Cl)CC1 [Compound 04-06, 1-[2,6-dichloro-4-(trifluoromethyl)phenyl]-S-(4-ethoxycarbonylpiperzin-1-yl)-4-[(trifluoromethyl)sulfonyl]-1H-pyrazole-3-carbonitrile]
control of Ctenocephalides felis: at least 80%
